Measurements reported in PubChem BioAssay AID1224826 (NIAID, 2016)

Aim: 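Knock-downs that raise or lower Tnf reporter signal after endotoxin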 (primary screen)
Cells: RAW264.7 G9 macrophages from mouse bearing reporters for p65 (GFP) and the Tnf promoter (mCherry)
Reagent: siRNA pool against mouse genes, 100 nM
Duration: 16 h of LPS stimulation, after 2 days of siRNA transfection
Conditions: bacterial lipopolysaccharide (Salmonella minnesota R595), 10 ng/ml
Measured: 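Imaged Tnf reporter mCherry in nuclei, minus background, normalised per plate to the median and expressed as robust z-scores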
Scale: Tnf reporter robust z-score: higher = stronger Tnf promoter reporter signal after LPS
Hit rule: 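Called active when robust z-score is at most -1.3, matching the median of the Tlr4 knock-down control, or over 3; control wells and wells with under 50 cells never active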
Meaning of the calls: active = Tnf reporter clearly lowered or raised; inactive = no clear change in Tnf reporter
Shown is one part, drawn at random, of about 17,000 reagents. About 1,110 of all reagents (6.6%) count as active. 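Active means lowered or raised reporter signal; replicate intensities are raw and not normalised per plate.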 Not all columns of the deposit are shown.

Depletion of Ptrh2 came out at: Tnf reporter robust z-score -0.59; fewer than 50 cells in well enough cells in well; inactive.
Silencing of Slc39a7 came out at: fewer than 50 cells in well fewer than 50 cells per well; well left out of calls; inactive.
With knock-down of Zfp11 the results were Tnf reporter robust z-score 1.25; fewer than 50 cells in well enough cells in well; inactive.
Arhgap8 scored fewer than 50 cells in well fewer than 50 cells per well; well left out of calls; inactive.
For Tgfbr3 the deposit lists Tnf reporter robust z-score -0.44; fewer than 50 cells in well enough cells in well; inactive.
Ggct showed Tnf reporter robust z-score 0.47; fewer than 50 cells in well enough cells in well; inactive.
For Hnf1b the deposit lists Tnf reporter robust z-score -0.46; fewer than 50 cells in well enough cells in well; inactive.
After knock-down of Gspt2 the results were Tnf reporter robust z-score -0.33; fewer than 50 cells in well enough cells in well; inactive.
Zan scored Tnf reporter robust z-score 1.04; fewer than 50 cells in well enough cells in well; inactive.
Against Pla2g7, the values are Tnf reporter robust z-score -0.34; fewer than 50 cells in well enough cells in well; inactive.
With knock-down of Actn4, the record shows fewer than 50 cells in well fewer than 50 cells per well; well left out of calls; inactive.
Depletion of Ighg3 gave: Tnf reporter robust z-score -0.66; fewer than 50 cells in well enough cells in well; inactive.
For Apoc2, the entry reads Tnf reporter robust z-score 0.77; fewer than 50 cells in well enough cells in well; inactive.

Just “fewer than 50 cells in well”, for 2 of the entries above:
Slc39a7: fewer than 50 cells per well; well left out of calls
Zfp11: enough cells in well

Next records follow.
After knock-down of Slc16a11, the screen gave Tnf reporter robust z-score -1.1; fewer than 50 cells in well enough cells in well; inactive.
Ddx20 gave Tnf reporter robust z-score 0.75; fewer than 50 cells in well enough cells in well; inactive.
Against F830045P16Rik, the values are Tnf reporter robust z-score 0.24; fewer than 50 cells in well enough cells in well; inactive.
For Or5d41, the values are Tnf reporter robust z-score 0.04; fewer than 50 cells in well enough cells in well; inactive.
Depletion of Mtr came out at: Tnf reporter robust z-score 0.36; fewer than 50 cells in well enough cells in well; inactive.
With knock-down of Tpra1, the screen gave Tnf reporter robust z-score -0.18; fewer than 50 cells in well enough cells in well; inactive.
Nkrf gave Tnf reporter robust z-score 0.33; fewer than 50 cells in well enough cells in well; inactive.
After knock-down of Kbtbd2 the results were Tnf reporter robust z-score 0.54; fewer than 50 cells in well enough cells in well; inactive.
